Experimental data: PubChem BioAssay AID1259405 (NCATS, 2018)

- Assay: 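Mouse-designed siRNAs used to find CHO productivity engineering targets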 (primary screen)
- System: Chinese hamster CHO-K1 ovary cells with stable secreted eGFP expression
- Reagents: single siRNA against mouse genes, 0.8 pmol siRNA per well (2 µl of 400 nM stock)
- Time to read-out: 3 days
- Measurement: 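Percent of the per-plate non-targeting control median for intracellular GFP per well by laser scanning cytometry and for cell viability by ATP luminescence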
- Reading the numbers: GFP, % of control: higher = more GFP per well, higher productivity; viability (ATP), % of control: higher = more viable cells (more ATP)
- Hit rule: 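Called active when intracellular GFP, relative to negative control, is at or above 120%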
Here is a random part of about 50,000 reagents. About 4,000 of all reagents (8%) count as active. 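Mouse siRNA library applied to hamster cells; one well for each siRNA.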 Unmarked entries are inactive. Reagents against one gene are numbered here.

Silencing of Adrb1 (GeneID 11554) #1 resulted in: GFP, % of control 108; viability (ATP), % of control 94.2.
Knock-down of Adrb1 (GeneID 11554) #2 came out at: GFP, % of control 74.2; viability (ATP), % of control 80.5.
After knock-down of Adrb1 (GeneID 11554) #3 the results were GFP, % of control 88.2; viability (ATP), % of control 45.
Against Hrk (GeneID 12123) #1, the entry reads GFP, % of control 73.7; viability (ATP), % of control 72.3.
Hrk (GeneID 12123) #2 scored GFP, % of control 82.7; viability (ATP), % of control 73.6.
For Nfatc1 (GeneID 18018) #1, the values are GFP, % of control 64.7; viability (ATP), % of control 82.2.
After knock-down of Nfatc1 (GeneID 18018) #2 the results were GFP, % of control 54.3; viability (ATP), % of control 74.2.
Silencing of Nfatc1 (GeneID 18018) #3 resulted in: GFP, % of control 74.6; viability (ATP), % of control 93.1.
After knock-down of Slc39a13 (GeneID 68427) #1, the record shows GFP, % of control 48.8; viability (ATP), % of control 77.4.
Silencing of Slc39a13 (GeneID 68427) #2 came out at: GFP, % of control 73.2; viability (ATP), % of control 82.3.
Knock-down of Slc39a13 (GeneID 68427) #3 resulted in: GFP, % of control 68.3; viability (ATP), % of control 89.3.
Against Sh2d4b (GeneID 328381) #1, the entry reads GFP, % of control 81.3; viability (ATP), % of control 90.7.
Sh2d4b (GeneID 328381) #2 gave GFP, % of control 55.4; viability (ATP), % of control 59.2.
Sh2d4b (GeneID 328381) #3 gave GFP, % of control 96.5; viability (ATP), % of control 89.1.
Rint1 (GeneID 72772) #1 gave GFP, % of control 101; viability (ATP), % of control 95.9.
With knock-down of Rint1 (GeneID 72772) #2, the record shows GFP, % of control 97; viability (ATP), % of control 85.1.
Rint1 (GeneID 72772) #3 gave GFP, % of control 52.1; viability (ATP), % of control 33.8.
Depletion of Nudt5 (GeneID 53893) #1 gave: GFP, % of control 49.1; viability (ATP), % of control 81.4.
Nudt5 (GeneID 53893) #2 gave GFP, % of control 65.3; viability (ATP), % of control 67.3.
Against Nudt5 (GeneID 53893) #3 the deposit lists GFP, % of control 64.4; viability (ATP), % of control 38.5.
Silencing of Slc6a19 (GeneID 74338) #1 gave: GFP, % of control 61; viability (ATP), % of control 38.7.
Knock-down of Slc6a19 (GeneID 74338) #2 came out at: GFP, % of control 95; viability (ATP), % of control 66.1.
Slc6a19 (GeneID 74338) #3 gave GFP, % of control 97.5; viability (ATP), % of control 98.5.
Knock-down of Vav3 (GeneID 57257) #1 came out at: GFP, % of control 132 (active); viability (ATP), % of control 129.
Vav3 (GeneID 57257) #2 showed GFP, % of control 51; viability (ATP), % of control 51.9.
Against Vav3 (GeneID 57257) #3 the deposit lists GFP, % of control 85.4; viability (ATP), % of control 76.7.
Cttnbp2nl (GeneID 80281) #1 scored GFP, % of control 39.4; viability (ATP), % of control 26.7.
Knock-down of Cttnbp2nl (GeneID 80281) #2 resulted in: GFP, % of control 57.2; viability (ATP), % of control 65.1.
For Cttnbp2nl (GeneID 80281) #3, the entry reads GFP, % of control 133 (active); viability (ATP), % of control 64.6.

Copied from the list.
For “GFP, % of control”, Adrb1 (GeneID 11554) #2 has 74.2
Value for Cttnbp2nl (GeneID 80281) #1 in “viability (ATP), % of control”: 26.7
